The target of the test is T1, Upf1 (rat (endogenous in PC12 cells and sympathetic neurons)).
T1 sequence: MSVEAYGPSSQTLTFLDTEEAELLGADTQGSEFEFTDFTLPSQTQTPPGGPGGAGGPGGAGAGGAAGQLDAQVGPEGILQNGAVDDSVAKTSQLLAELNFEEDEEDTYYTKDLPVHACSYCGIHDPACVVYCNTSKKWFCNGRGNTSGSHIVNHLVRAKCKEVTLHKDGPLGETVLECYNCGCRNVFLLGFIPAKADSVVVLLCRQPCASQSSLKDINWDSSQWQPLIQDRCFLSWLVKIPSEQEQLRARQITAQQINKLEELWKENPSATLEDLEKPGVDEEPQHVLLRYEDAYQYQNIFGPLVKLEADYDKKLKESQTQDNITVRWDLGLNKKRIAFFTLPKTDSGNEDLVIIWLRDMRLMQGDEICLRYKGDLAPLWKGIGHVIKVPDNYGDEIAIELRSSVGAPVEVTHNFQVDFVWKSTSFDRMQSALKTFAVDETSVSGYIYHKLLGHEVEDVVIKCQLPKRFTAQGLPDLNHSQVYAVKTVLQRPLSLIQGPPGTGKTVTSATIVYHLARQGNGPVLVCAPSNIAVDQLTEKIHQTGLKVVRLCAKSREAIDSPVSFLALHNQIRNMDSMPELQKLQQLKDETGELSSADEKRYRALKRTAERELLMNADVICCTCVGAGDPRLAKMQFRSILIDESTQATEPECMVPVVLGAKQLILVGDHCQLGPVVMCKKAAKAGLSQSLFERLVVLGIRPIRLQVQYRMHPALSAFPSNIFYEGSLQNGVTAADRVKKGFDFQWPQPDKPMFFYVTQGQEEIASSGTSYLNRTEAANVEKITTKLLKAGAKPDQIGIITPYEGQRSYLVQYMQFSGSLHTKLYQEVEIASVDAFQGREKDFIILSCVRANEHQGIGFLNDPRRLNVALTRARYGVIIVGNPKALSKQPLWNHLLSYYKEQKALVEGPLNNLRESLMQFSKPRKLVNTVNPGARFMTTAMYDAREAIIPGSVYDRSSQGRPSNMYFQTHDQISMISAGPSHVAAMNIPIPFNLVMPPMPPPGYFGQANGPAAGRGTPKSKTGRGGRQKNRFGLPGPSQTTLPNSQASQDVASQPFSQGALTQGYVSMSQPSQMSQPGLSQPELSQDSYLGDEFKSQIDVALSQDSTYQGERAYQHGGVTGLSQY
In words: co-IP; sympathetic neurons lysed in RIPA buffer; 0.5-1 mg pre-cleared lysate with 2 ug antibody overnight at 4°C, protein A-agarose beads, washes with RIPA buffer, western blot. (In western blotting, separated proteins are transferred to a membrane and probed.)

Protein sequences, listed by entry. Tags and fused reporters are not part of them.
UniProt O09032: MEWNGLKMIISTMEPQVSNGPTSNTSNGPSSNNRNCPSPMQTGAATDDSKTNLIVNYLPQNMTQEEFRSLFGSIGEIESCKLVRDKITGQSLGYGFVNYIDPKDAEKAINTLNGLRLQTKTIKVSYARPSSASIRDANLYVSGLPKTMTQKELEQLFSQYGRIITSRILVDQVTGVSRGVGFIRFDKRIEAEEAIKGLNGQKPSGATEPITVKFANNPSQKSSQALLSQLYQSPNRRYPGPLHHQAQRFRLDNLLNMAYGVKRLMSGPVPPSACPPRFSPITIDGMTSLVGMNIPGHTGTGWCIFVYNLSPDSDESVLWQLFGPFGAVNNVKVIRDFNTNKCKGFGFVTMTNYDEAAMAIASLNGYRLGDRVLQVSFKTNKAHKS
UniProt Q9QZ81: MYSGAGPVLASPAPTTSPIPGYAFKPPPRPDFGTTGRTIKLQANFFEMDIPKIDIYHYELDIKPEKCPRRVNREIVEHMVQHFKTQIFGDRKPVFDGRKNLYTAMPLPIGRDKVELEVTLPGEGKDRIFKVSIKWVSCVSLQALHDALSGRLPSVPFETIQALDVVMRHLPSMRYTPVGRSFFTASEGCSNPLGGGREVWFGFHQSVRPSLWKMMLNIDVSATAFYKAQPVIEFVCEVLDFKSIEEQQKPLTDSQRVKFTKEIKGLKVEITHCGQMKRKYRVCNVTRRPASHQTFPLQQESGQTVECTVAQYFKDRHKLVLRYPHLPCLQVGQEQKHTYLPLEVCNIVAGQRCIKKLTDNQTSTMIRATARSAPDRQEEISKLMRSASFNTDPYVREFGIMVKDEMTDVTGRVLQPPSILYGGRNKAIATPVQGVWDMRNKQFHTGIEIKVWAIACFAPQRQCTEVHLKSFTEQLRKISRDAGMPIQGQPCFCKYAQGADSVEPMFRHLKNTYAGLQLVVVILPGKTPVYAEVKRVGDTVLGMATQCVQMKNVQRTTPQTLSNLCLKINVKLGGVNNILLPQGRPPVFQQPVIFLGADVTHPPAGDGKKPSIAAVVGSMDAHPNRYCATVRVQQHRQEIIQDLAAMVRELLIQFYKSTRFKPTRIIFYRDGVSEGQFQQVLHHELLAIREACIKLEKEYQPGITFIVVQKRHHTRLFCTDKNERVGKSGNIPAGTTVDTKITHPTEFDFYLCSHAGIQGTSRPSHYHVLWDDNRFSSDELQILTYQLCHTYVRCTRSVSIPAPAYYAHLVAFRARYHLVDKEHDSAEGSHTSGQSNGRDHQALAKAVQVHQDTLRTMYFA

No constants are given. Whether binding was seen depends on the method and setting. Binding seen in cells or lysates may run through a third protein. Some entries that bind do so weakly or less than the wild type.

For “ELAV-like protein 4 (HuD) (from UniProt O09032 1-385)”, the binding result is on record as “binds”.

Regarding “Argonaute 2 (Ago2) (from UniProt Q9QZ81 1-860)”, the binding entry is listed as “binds”.
